Results are given in words; binding and its absence hold for the method and conditions named. In cells and extracts the contact can be indirect. Some results given as binding are weak or reduced against the parent protein; the word gives no strength. For part of these data: Sequences can lack the tags named with a protein.
Columns and labels:
[1] = biological target: T1, HA-Halo-MRAP2 (human, UniProt Q96G30 1-205, CA-Sulfo646 dye on the Halo tag); experiment: single-molecule pull-down (SiMPull) with photobleaching step counting; earlier two-color datasets of ref. 8 reanalysed here: MC3R co-expressed with Halo-MRAP2 or CLIP-MRAP2, monomeric against oligomeric GPCR
T1 construct: melanocortin receptor-2 accessory protein-2 (MRAP2), human; N-terminal signal peptide from rat mGluR2 in the construct; also called melanocortin receptor-2 accessory protein-2; source: HEK293, transfected, in lysate (LMNG-CHS); not shown: HA, N-terminal, kept; Halo, N-terminal, kept
T1 sequence (looked up): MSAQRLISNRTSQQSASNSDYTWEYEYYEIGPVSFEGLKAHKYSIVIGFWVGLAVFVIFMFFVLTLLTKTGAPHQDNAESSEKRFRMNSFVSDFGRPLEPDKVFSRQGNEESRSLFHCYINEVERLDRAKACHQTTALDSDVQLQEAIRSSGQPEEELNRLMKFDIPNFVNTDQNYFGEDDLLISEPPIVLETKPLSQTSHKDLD

Chains of the proteins cited; added tags and fusions are not shown.
UniProt Q92847: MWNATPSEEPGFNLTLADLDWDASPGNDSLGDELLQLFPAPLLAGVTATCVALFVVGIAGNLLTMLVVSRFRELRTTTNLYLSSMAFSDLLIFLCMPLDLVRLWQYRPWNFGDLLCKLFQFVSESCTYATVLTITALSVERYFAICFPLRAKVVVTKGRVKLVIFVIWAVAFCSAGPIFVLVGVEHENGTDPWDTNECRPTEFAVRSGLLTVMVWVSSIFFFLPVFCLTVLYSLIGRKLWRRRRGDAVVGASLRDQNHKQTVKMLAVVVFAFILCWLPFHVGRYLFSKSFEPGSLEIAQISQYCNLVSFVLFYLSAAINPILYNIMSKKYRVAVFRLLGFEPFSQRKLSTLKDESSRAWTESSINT
UniProt P41968: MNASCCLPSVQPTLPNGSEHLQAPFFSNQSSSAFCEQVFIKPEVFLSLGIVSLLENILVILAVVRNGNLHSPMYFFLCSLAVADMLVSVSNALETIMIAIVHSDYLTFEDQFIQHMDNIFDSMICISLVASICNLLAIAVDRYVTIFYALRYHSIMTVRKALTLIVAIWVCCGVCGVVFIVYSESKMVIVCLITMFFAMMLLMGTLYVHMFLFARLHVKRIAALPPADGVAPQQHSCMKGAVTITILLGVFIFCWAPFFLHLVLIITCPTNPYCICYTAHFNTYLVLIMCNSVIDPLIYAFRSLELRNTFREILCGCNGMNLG
UniProt P32121: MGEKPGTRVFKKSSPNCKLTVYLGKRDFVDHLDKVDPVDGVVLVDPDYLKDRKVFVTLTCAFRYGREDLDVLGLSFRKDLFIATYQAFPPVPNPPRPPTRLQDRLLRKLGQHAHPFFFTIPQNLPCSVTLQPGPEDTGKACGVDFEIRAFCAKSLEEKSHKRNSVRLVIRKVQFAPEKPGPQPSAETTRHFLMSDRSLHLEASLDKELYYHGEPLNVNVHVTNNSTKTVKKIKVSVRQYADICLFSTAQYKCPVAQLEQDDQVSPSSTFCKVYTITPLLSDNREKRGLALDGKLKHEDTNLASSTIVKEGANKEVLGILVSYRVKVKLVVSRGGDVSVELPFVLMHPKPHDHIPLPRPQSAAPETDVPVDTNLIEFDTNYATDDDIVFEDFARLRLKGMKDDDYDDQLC

[2] = biological target: GHSR-Rluc8 (UniProt Q92847); experiment: FRET or BRET; AdHEK or mHypo-N39 cells with 50 ng GHSR-Rluc8, 500 ng β-arrestin-2 acceptor and 50 ng pcDNA3.1 or 3xFLAG-MRAP2; coelenterazine-H, 37°C, agonist MK-0677
[3] = biological target: MC3R (co-expressed with pcDNA or CLIP-MRAP2 in SiMPull) (human) (UniProt P41968); experiment: single-molecule pull-down (SiMPull) with photobleaching step counting; earlier two-color datasets of ref. 8 reanalysed here: MC3R co-expressed with Halo-MRAP2 or CLIP-MRAP2, monomeric against oligomeric GPCR

Molecule: MC3R (co-expressed with Halo-MRAP2 in SiMPull) (from UniProt P41968 1-323) (receptor)
- binding [1]: binds

Molecule: β-arrestin-2-YFP (from UniProt P32121 1-409)
- binding [2]: binds

B1: FLAG-CLIP-MRAP2 (natural protein, human, UniProt Q96G30 1-205, looked up)
chain: T1 sequence (looked up)
modifications: BC-DY547 dye on the CLIP tag
notes: melanocortin receptor-2 accessory protein-2 (MRAP2), human; N-terminal signal peptide from rat mGluR2 in the construct; source: HEK293, transfected, in lysate (LMNG-CHS); not shown: CLIP, N-terminal, kept
- binding [3]: binds
